# The supplement of paper PMC12819154, “High-throughput peptide-centric local stability assay extends protein–ligand identification to membrane proteins, tissues and bacteria” (Nature Structural & Molecular Biology, 2025)
# The chains behind the UniProt entries cited, without tags or fusion partners. Where a name states a change or a piece, a line headed by the entry shows the natural chain unless it says otherwise.
# UniProt P28843: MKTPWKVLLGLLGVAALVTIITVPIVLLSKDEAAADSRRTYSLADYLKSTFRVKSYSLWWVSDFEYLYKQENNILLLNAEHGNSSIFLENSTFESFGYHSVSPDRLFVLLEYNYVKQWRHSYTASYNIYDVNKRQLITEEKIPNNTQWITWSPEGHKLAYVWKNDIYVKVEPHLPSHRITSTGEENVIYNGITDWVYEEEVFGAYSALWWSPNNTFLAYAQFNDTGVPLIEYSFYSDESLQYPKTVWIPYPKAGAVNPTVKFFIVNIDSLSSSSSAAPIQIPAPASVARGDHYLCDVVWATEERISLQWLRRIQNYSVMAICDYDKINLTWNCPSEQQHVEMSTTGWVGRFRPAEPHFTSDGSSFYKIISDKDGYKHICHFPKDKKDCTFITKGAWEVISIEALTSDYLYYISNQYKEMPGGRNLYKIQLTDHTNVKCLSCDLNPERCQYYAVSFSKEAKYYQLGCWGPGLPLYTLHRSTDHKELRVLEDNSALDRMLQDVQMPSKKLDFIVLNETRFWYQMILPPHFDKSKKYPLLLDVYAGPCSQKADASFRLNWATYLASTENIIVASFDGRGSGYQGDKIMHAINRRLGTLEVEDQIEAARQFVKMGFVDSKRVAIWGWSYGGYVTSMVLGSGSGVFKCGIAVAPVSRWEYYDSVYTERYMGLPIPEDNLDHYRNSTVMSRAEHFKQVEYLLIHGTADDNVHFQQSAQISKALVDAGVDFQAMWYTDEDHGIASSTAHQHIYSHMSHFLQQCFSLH
# UniProt P17665: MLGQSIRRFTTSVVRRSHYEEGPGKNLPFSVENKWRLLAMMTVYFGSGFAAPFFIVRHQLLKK
# UniProt P16294, whole entry: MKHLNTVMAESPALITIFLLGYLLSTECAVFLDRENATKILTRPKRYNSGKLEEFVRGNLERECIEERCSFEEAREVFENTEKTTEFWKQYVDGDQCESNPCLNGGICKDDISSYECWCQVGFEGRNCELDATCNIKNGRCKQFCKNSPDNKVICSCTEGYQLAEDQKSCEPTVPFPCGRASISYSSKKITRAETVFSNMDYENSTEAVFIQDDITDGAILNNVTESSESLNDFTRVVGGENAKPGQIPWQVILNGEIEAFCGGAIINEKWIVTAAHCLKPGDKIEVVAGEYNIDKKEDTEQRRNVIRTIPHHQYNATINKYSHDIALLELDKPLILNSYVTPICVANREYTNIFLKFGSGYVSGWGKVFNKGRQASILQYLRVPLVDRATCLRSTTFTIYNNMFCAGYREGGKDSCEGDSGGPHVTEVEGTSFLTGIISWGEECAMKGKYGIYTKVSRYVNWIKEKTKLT
# UniProt P19221, whole entry: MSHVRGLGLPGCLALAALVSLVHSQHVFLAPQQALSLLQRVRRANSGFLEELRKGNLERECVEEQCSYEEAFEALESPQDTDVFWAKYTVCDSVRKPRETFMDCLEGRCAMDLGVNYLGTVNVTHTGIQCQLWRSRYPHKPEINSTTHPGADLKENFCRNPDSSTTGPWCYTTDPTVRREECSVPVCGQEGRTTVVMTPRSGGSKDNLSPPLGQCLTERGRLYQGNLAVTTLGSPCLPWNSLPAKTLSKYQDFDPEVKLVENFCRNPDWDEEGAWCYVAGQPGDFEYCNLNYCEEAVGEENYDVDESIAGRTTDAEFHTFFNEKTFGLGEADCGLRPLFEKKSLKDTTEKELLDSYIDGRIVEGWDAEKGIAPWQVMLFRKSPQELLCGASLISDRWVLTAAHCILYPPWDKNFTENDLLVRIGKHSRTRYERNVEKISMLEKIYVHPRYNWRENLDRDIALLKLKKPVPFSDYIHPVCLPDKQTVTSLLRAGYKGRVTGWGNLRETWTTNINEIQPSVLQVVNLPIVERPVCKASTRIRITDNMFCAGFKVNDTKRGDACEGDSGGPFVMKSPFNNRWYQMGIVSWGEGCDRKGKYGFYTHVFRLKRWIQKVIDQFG
# UniProt P28740: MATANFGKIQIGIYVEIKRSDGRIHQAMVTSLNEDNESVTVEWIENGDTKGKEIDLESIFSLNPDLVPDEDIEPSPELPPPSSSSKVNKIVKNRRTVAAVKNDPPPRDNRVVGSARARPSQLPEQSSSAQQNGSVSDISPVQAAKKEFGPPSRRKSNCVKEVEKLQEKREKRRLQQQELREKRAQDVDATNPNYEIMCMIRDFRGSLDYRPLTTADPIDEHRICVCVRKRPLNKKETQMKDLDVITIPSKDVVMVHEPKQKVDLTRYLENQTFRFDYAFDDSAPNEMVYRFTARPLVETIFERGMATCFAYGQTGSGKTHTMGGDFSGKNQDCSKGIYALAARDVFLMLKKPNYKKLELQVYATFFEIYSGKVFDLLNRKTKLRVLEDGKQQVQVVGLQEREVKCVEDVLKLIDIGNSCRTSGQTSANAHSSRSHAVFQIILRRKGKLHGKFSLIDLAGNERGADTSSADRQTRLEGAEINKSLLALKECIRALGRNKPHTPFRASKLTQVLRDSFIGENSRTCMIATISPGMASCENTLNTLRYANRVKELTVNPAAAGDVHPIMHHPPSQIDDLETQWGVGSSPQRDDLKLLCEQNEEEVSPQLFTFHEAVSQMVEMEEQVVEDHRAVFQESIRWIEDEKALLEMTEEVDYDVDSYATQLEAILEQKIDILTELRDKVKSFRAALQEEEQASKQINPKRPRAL
# UniProt P30993: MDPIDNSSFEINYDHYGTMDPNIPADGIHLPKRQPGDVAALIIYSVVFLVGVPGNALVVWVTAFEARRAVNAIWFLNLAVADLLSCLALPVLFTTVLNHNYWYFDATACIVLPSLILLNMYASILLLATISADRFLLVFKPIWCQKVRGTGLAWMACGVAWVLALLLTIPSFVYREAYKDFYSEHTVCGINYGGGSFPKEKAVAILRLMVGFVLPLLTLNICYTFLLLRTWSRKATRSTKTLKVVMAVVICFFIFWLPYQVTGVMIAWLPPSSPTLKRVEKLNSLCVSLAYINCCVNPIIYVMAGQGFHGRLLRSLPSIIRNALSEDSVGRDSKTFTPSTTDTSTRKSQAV
# UniProt P17095: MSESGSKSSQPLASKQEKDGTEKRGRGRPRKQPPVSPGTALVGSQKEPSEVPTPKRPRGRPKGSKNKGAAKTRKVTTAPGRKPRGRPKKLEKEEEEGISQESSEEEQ
# UniProt P31786: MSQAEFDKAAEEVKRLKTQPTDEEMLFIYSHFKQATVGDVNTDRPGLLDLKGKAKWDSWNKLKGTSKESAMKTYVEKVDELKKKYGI
# UniProt P32883, whole entry: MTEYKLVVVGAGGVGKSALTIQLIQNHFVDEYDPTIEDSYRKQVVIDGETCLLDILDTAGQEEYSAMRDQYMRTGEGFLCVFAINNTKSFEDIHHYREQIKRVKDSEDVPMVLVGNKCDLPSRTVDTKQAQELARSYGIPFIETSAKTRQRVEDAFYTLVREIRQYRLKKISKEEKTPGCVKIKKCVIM
# UniProt P23949: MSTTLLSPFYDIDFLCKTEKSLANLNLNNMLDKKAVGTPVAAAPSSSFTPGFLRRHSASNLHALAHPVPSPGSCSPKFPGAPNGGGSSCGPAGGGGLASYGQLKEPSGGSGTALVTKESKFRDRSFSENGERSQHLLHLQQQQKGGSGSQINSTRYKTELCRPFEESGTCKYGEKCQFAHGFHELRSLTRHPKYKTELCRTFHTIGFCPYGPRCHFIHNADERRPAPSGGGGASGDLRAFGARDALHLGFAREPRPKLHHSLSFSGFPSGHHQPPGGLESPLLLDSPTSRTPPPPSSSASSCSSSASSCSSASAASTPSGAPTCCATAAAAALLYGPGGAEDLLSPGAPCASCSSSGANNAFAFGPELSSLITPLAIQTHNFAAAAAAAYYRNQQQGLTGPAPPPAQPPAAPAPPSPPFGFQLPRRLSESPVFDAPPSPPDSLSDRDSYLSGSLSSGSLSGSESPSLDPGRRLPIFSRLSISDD
# UniProt P25911: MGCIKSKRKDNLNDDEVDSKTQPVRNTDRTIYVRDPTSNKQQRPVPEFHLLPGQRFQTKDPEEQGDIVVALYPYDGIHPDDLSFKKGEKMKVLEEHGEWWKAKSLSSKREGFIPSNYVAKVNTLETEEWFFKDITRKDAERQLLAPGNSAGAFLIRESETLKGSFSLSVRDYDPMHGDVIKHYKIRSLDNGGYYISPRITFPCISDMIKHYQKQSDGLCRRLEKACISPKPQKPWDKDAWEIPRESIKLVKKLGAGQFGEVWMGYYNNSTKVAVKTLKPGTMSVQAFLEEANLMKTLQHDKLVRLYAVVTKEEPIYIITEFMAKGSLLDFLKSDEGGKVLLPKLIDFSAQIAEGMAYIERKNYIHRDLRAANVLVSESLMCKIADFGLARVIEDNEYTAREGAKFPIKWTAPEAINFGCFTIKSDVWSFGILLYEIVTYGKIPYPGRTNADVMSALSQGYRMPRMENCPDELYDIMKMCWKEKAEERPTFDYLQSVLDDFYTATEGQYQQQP
# The other results are listed elsewhere or left out. Small differences around the control level are noise.
# Compound: CN[C@@H]1C[C@H]2O[C@@](C)([C@@H]1OC)n1c3ccccc3c3c4c(c5c6ccccc6n2c5c31)C(=O)NC4 [staurosporine]
# Assay: log2 fold change of tryptic peptide abundance, ligand vs vehicle (limited proteolysis) (log2 ratio); higher = more trypsin-susceptible (destabilized)
# Details: ligand concentration: 20 uM; sample: mouse liver crude lysate; replicate design: treated separately
row,Target,log2 fold change
1,"UniProt P28843 (peptide sequence: VLEDNSALDR, peptide start residue: 487)",-1.12
2,"UniProt P17665 (peptide sequence: NLPFSVENK, peptide start residue: 26)",-0.158
3,"UniProt P16294 (peptide sequence: IEVVAGEYNIDK, peptide start residue: 285)",0.177
4,"UniProt P19221 (peptide sequence: RGDACEGDSGGPFVMK, peptide start residue: 557)",-0.889
5,"UniProt P28740 (peptide sequence: FSLIDLAGNER, peptide start residue: 452)",0.143
6,"UniProt P30993 (peptide sequence: TFTPSTTDTSTR, peptide start residue: 335)",-0.149
7,"UniProt P17095 (peptide sequence: EPSEVPTPK, peptide start residue: 47)",0.0957
8,"UniProt P31786 (peptide sequence: WDSWNKLKGTSK, peptide start residue: 56)",-0.468
9,"UniProt P32883 (peptide sequence: VKDSEDVPMVLVGNKCDLPSR, peptide start residue: 103)",-0.51
10,"UniProt P23949 (peptide sequence: SFSENGER, peptide start residue: 125)",-0.397
11,"UniProt P25911 (peptide sequence: DYDPMHGDVIK, peptide start residue: 171)",0.507

# Given with tabs: part of the list above.
row	Target	log2 fold change
3	UniProt P16294 (peptide sequence: IEVVAGEYNIDK, peptide start residue: 285)	0.177
4	UniProt P19221 (peptide sequence: RGDACEGDSGGPFVMK, peptide start residue: 557)	-0.889
